The subject of data set [1] is MBP-LA (LANCEOLATE, CIN-TCP transcription factor). Nature of the data set: EMSA. The note with it: 1x binding buffer (LightShift kit), 50 ng/uL poly(dI/dC), 2.5% glycerol, 0.05% NP-40, 50 fmol probe, 3.75 ug BSA, room temperature 30-40 min; 6% native PAGE; recombinant protein; protein details: MBP; label: 3' biotin (end labeled).
Another data set relates to MBP (empty). Nature of the data set: EMSA. Particulars: 1x binding buffer (LightShift kit), 50 ng/uL poly(dI/dC), 2.5% glycerol, 0.05% NP-40, 50 fmol probe, 3.75 ug BSA, room temperature 30-40 min; 6% native PAGE; recombinant protein; label: 3' biotin (end labeled). (In general: Mobility shift assays separate free from complexed probe on a gel.)
Data set [2] deals with MBP-LA (LANCEOLATE, CIN-TCP transcription factor). Nature of the data set: competition with a labelled probe. The note with it: 1x binding buffer (LightShift kit), 50 ng/uL poly(dI/dC), 2.5% glycerol, 0.05% NP-40, 50 fmol probe, 3.75 ug BSA, room temperature 30-40 min, 6% native PAGE, recombinant protein, protein details: MBP.

Construct, isoform or probe ends are uncertain for at least one entry. A negative result means that nothing was seen under these conditions. For some of these results: At least one verdict was read from the data and is not stated in words by the source.

Consider “CTATTAGATTACACTTGTAAAACGTGTGGTCCAACATAGAGAAATGGTAATCTTTTTC / AAAAAGATTACCATTTCTCTATTGTTGGACCACACGTTTTACAAGTGTAATCTAATAGC [TRR8/9-1 probe]”, for which, in data set [1], the binding result was “binds”.

Regarding “AAGAATGGGAAGCAGCTAGATTTGGTCCCCATTATTAAGATTTAGCAAGA (double strand) [TRR16/17-1 probe]”, the binding result in data set [1] was “binds”.

With “AAAAAAGGTAAATATATAAATTATGTAGGACCACAAAAAGATTTTGTAAAGATTAGACAA (double strand) [TRR3/4-1 probe]”, the binding result in data set [1] is on record as “binds”; in the data set with MBP (empty), “no binding”.

On to “AAAAAAGGTAAATATATAAATTATGTAGGAACTCAAAAAGATTTTGTAAAGATTAGACAA (double strand) [TRR3/4-1m probe]”, for which, in data set [1], the binding result is on record as “no binding”.

“AAAAAAGGTAAATATATAAATTATGTAGGACCACAAAAAGATTTTGTAAAGATTAGACAA (double strand) [TRR3/4-1 unlabeled competitor]”: the binding result in data set [2] (unlabeled, dose-dependent, vs biotinylated TRR3/4 probe) was “binds”.

As to “AAAAAAGGTAAATATATAAATTATGTAGGAACTCAAAAAGATTTTGTAAAGATTAGACAA (double strand) [TRR3/4-1m competitor]”, the binding result in data set [2] (vs biotinylated WT TRR3/4 probe) was “no binding”.

The values above are taken from article PMC8102002.
